From paper PMC7372555
These are yes or no findings as the source states them, for the method shown. Binding seen in cells or lysates may run through a third protein. Some binding calls cover weakened binding; strength is not graded here. Tags and fused reporters may be left off the sequences shown.

The chains behind the UniProt entries cited, without tags or fusion partners. Where a name states a change or a piece, a line headed by the entry shows the natural chain unless it says otherwise.
UniProt Q96D31: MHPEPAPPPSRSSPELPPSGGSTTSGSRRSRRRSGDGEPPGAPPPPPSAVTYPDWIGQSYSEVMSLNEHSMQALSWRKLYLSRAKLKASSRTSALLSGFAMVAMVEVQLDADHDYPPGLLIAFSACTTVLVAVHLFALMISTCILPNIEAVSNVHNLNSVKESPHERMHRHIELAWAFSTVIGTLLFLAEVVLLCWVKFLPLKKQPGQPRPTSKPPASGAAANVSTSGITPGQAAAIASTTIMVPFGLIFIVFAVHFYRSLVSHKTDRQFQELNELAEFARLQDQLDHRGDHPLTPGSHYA

Legend:
[1] = target: HA- and myc-tagged WT Orai1 (human) (UniProt Q96D31); assay: co-IP; as a2, at ambient pH 7.4; anti-HA pull down of HA- and myc-tagged Orai1, blot for GFP
[2] = target: HA- and myc-tagged S218G–N223S–Orai1 (human) (UniProt Q96D31); assay: as above
[3] = target: D112A–S218G–N223S–Orai1 (human) (UniProt Q96D31); assay: as above
[4] = target: HA- and myc-tagged WT Orai1 (human) (UniProt Q96D31); assay: co-IP; HEK293T co-transfected with HA-inserted Orai1 and Flotillin-1–GFP; 1% Triton X-100 lysis buffer (150 mM NaCl, 20 mM Tris–HCl pH 7.5); anti-HA antibody and protein A Sepharose, 4°C, 2 hours; blots with anti-GFP and anti-myc
[5] = target: HA- and myc-tagged S218G–N223S–Orai1 (human) (UniProt Q96D31); assay: as above
[6] = target: HA- and myc-tagged WT Orai1 (human) (UniProt Q96D31); assay: co-IP; as a2, at ambient pH 6.2; anti-HA pull down of HA- and myc-tagged Orai1, blot for GFP
[7] = target: D112A–S218G–N223S–Orai1 (human) (UniProt Q96D31); assay: as above

Measured: binding

B1: Flotillin 1–GFP (protein, UniProt O75955 1-427)
chain: MFFTCGPNEAMVVSGFCRSPPVMVAGGRVFVLPCIQQIQRISLNTLTLNVKSEKVYTRHGVPISVTGIAQVKIQGQNKEMLAAACQMFLGKTEAEIAHIALETLEGHQRAIMAHMTVEEIYKDRQKFSEQVFKVASSDLVNMGISVVSYTLKDIHDDQDYLHSLGKARTAQVQKDARIGEAEAKRDAGIREAKAKQEKVSAQYLSEIEMAKAQRDYELKKAAYDIEVNTRRAQADLAYQLQVAKTKQQIEEQRVQVQVVERAQQVAVQEQEIARREKELEARVRKPAEAERYKLERLAEAEKSQLIMQAEAEAASVRMRGEAEAFAIGARARAEAEQMAKKAEAFQLYQEAAQLDMLLEKLPQVAEEISGPLTSANKITLVSSGSGTMGAAKVTGEVLDILTRLPESVERLTGVSISQVNHKPLRTA
binds: all assays above
